We go through 28 sequences from PubChem BioAssay AID1347423 (Functional Genomics Laboratory (NCATS/FGL), 2020).

Screen size: about 52,000 sequences; about 210 (0.4%) were called active.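 The calls were made as follows: active = gene whose silencing raises cell survival under the drug, median off-target-corrected z-score across its silencing RNAs 2 or more; inactive = the rest.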 Some of the results follow.

The experiment is described as follows: Resistance to Poly (ADP-Ribose) Polymerase inhibitor: Gene Identification via Genome-wide siRNA Screen. The following applies: mouse BRCA2 R2336H ES cells, olaparib, CellTiter-Glo viability; active compounds read high. A digest of the protocol: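 Mouse BRCA2 R2336H ES cells were reverse-transfected with siRNA (20 nM final), treated at 48 h with 500 nM olaparib, and read by CellTiter-Glo after 72 h. Scores: MAD-based z per siRNA, median per gene, seed off-target correction.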
A general note: In ATP-based viability assays light output follows the ATP content of the culture.
Consider GGGAAAUUUAAAAACCUGGTT against Hoxa2, for which the z-score was inactive: -0.955. In the case of GGAAAUUAACUUCACUGCUTT against Olfr669, the z-score was inactive: -0.269. In the case of GCUAUUGGGUAGAUUGAUATT against Baat, the z-score is inactive: 0.164. Take “GCGGCCGACUUUGUGAAAGTT against 1810003N24Rik”: the z-score is inactive: -1.16. In the case of GCAUCUCCCUUAUGUCUGUTT against Nubp2, the z-score was inactive: -1.39. The result for GGCUUAUGUGGUCCUUGGCTT against Banf1 reads inactive: -0.355; that for “GCCAGUACACUCCACCUGUTT against 1200008O12Rik”, inactive: 0.654. The same measure for CCUGUCUUUAGUGGACUUUTT against Olfr1453: inactive: -1.85; for GGAUUUUGAAGCCAGUUGCTT against Ubash3a: inactive: -0.419; for GGACUAUAUUCUUAACUCATT against F11r: inactive: -1.29.

Take “GCGAAGCGUGCUGCUAAGATT against D10Ertd718e”: the z-score is inactive: 1.21. With GGAAGUCAACCGAGUCUUCTT against LOC434484, the z-score is inactive: -2.13. The result for GGGCAUUGCCAGGAAUUAUTT against Lrp1b reads inactive: 0.0608. The result for GCUCGCCAAUAUGUAUAUGTT against ORF34 reads inactive: -0.0627; that for CGUGGUCUUCACGAUUGGATT against Pde4c, inactive: 0.924. CCAUUGAGGGAAUGAUUAATT against Acvr1b: the z-score was inactive: -0.164. The result for “GGACAAAAAAGAAGGUGAATT against 8430417A20Rik” reads inactive: -0.559. The result for CGCUGCUGGUUCAUAUUGGTT against Zdhhc25 reads inactive: -2.52; that for GCCAGGAUUAUCUUGAGAATT against Prpf39, inactive: -0.069; that for GGUACUGGAUGAGCUGAGGTT against Letm1, inactive: 0.336.

Take GGAGUGCUUGAAGAACAUATT against Kcnk7: the z-score was inactive: 0.459. The same measure for “GCUGGGUCAUUUAACAAGCTT against 1300002F13Rik”: inactive: -0.4. On to “CGUGGAAGAAAUAAUUAGGTT against C230052I12Rik”, for which the z-score was inactive: 0.24. Take “GCAUUUGGAAUUUACCAUGTT against 1810073M12Rik”: the z-score is inactive: 1.29.

For the sequence CCAUUCCAGUUAUGUCAAUTT against Pus3, the z-score was inactive: -0.401. The result for GGACAAAAGACUUGAAUUUTT against Alox15 reads inactive: 0.668. For “GGUAUUACUGAAAAGCACCTT against 2310008H04Rik”, the z-score was inactive: -1.36. Take CGACUGGAAUCUAAUAACUTT against Fgf2: the z-score was inactive: 0.0702.
